PubChem BioAssay AID504744 | Drosophila RNAi Screening Center – 2011
Screen: 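Uncover factors, including feedback loops, that control dAkt activation in fly cells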 (primary screen). System: Drosophila Kc167 cells. Reagents: long dsRNA against Drosophila genes, 250 ng dsRNA per well of a 384-well plate. Duration: 3 days of knock-down, then overnight serum-free starvation before stimulation. Challenge: bovine insulin at 387 nM for 10 minutes after 12 h without serum. Detection: 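In-cell antibody fluorescence for phospho-dAkt in each well over DNA-dye signal, with log2 residuals expressed as z-scores adjusted for cell count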. Call rule: 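Hit in the insulin screen when the two-replicate mean z-score is more extreme than plus or minus 2.5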.
In all, the deposit lists about 23,000 reagents; this is a random part of those that have a named target and a result. Over the whole deposit, 98 (0.43%) were called active. 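Only hit calls are given; the phospho-dAkt signals, z-scores and hit direction were not deposited.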 A plus sign joins genes that one reagent is predicted to hit.

Ir76b (Ionotropic receptor 76b) [DRSC10831]
- Outcome: inactive

UQCR-6.4 (Ubiquinol-cytochrome c reductase 6.4 kDa subunit) [DRSC06454]
- Outcome: inactive

Tcs5 (Threonyl-carbamoyl synthesis 5) [DRSC09774]
- Outcome: inactive

CG12432 (retired record) [DRSC19455]
- Outcome: inactive

Pus1 (Pseudouridine synthase 1) [DRSC15548]
- Outcome: inactive

Su(Tpl) (Suppressor of Triplolethal) [DRSC10954]
- Outcome: inactive

CG7120 [DRSC10773]
- Outcome: inactive

Ilp4 (Insulin-like peptide 4) [DRSC10701]
- Outcome: inactive

Obp50b + Obp50c [DRSC21818]
- Outcome: inactive

CG31612 [DRSC03697]
- Outcome: inactive

CG31612 [DRSC03698]
- Outcome: inactive

CG13613 [DRSC14616]
- Outcome: inactive

CG11893 [DRSC14429]
- Outcome: inactive

kra (krasavietz) [DRSC12320]
- Outcome: inactive

Gdh (Glutamate dehydrogenase) [DRSC16679]
- Outcome: inactive

CG8837 [DRSC00711]
- Outcome: inactive

CG3176 + CR18166 + CG32817 [DRSC17271]
- Outcome: inactive

CG3176 + CR18166 + CG32817 [DRSC17282]
- Outcome: inactive

CG3176 + CR18166 + CG32817 [DRSC18288]
- Outcome: inactive

CG6209 [DRSC06968]
- Outcome: inactive

Nnf1b [DRSC22080]
- Outcome: inactive

Atg6 (Autophagy-related 6) [DRSC15798]
- Outcome: inactive

Fatp (retired record) [DRSC03054]
- Outcome: inactive

Already shown: 2 of the entries above.
CG8837 [DRSC00711]
- Outcome: inactive

CG3176 + CR18166 + CG32817 [DRSC17271]
- Outcome: inactive
